Source: US5744444A, “HPTH-fragment-(1-37), the preparation thereof, medicaments containing same and the use thereof” (HaemoPep Pharma GmbH, priority 1989, dated 1998)
At least one peptide structure holds a part that was inferred or is arguable (an end, a ring closure or a residue).

Legend:
[1] = tested on: pulmonal arteries over Arteria renalis; assay: function test by differential muscle contraction of pulmonal arteries over Arteria renalis; conditions: synthetic material of Example 2
[2] = tested on: pheochromocytoma cells (PC-12); assay: intracellular cAMP level in PC-12 cells after stimulation with hPTH fragments; assay type: cell-based, rat; conditions: 10^-11 to 10^-7 M peptide, 10^-4 M IBMX, compared with hPTH-(1-33) and hPTH-(1-38), FIG. 11, 12
[3] = secondary structure by UV circular dichroism; assay type: physicochemical; conditions: 50 μg/ml, 10 mM Tris-HCl buffer pH 7.5, room temperature, 190-240 nm; calculated by the method of Reed and Kinzel
Protocol: The circular dichroism was measured by means of a Jasco J-500 Automatic Recording Spectropolarimeter coupled with a Jasco DP-500 Data Processor. For the determination of the secondary structure, the measurement was carried out in the spectral range of from 190 nm to 240 nm at room temperature in a selected quartz cuvette at a light path of 1 mm. The parathormone concentrations employed were 50 μg/ml of hPTH-(1-33), 50 μg/ml of hPTH-(1-37) and 50 μg/ml of hPTH-(1-38). 10 mM Tris-HCl buffer pH 7.5 was used for dissolution (other conditions of the measurement: Sensitivity 2 milli-degrees/cm; time constant 2 seconds; recorder speed: 4 nm/min; wave length expansion: 5 nm/cm). The curves in FIG. 13 for hPTH-(1-33) hPTH-(1-37) and hPTH-(1-38) are average values for the signals from 4 subsequent measurements minus the base line values.
The evaluation for determining the secondary structure was performed in accordance with the method described by Reed and Kinzel (Biochemistry 23, 1357-1362, 1984).

[4] = tested on: unstriated muscles of the lung vessels; assay: organ bath, development of force: unstriated muscles of the lung vessels; set-up: species or system human surgical preparations and rabbits; conditions: lung vessel muscles, pre-contraction with various contraction-activating substances; concentrations in the range of 10^-9 moles
[5] = tested on: unstriated muscles of the Corpus cavernosum; assay: organ bath, development of force: unstriated muscles of the Corpus cavernosum; set-up: species or system human surgical preparations and rabbits; conditions: pre-contraction with various contraction-activating substances, concentrations in the range of 10^-9 moles

For `CC[C@H](C)[C@H](NC(=O)[C@H](CCC(=O)O)NC(=O)[C@H](CO)NC(=O)[C@@H](NC(=O)[C@@H](N)CO)C(C)C)C(=O)N[C@@H](CCC(N)=O)C(=O)N[C@@H](CC(C)C)C(=O)N[C@@H](CCSC)C(=O)N[C@@H](Cc1c[nH]cn1)C(=O)N[C@@H](CC(N)=O)C(=O)N[C@@H](CC(C)C)C(=O)NCC(=O)N[C@@H](CCCCN)C(=O)N[C@@H](Cc1c[nH]cn1)C(=O)N[C@@H](CC(C)C)C(=O)N[C@@H](CC(N)=O)C(=O)N[C@@H](CO)C(=O)N[C@@H](CCSC)C(=O)N[C@@H](CCC(=O)O)C(=O)N[C@@H](CCCNC(=N)N)C(=O)N[C@H](C(=O)N[C@@H](CCC(=O)O)C(=O)N[C@@H](Cc1c[nH]c2ccccc12)C(=O)N[C@@H](CC(C)C)C(=O)N[C@@H](CCCNC(=N)N)C(=O)N[C@@H](CCCCN)C(=O)N[C@@H](CCCCN)C(=O)N[C@@H](CC(C)C)C(=O)N[C@@H](CCC(N)=O)C(=O)N[C@@H](CC(=O)O)C(=O)N[C@H](C(=O)N[C@@H](Cc1c[nH]cn1)C(=O)N[C@@H](CC(N)=O)C(=O)N[C@@H](Cc1ccccc1)C(=O)N[C@H](C(=O)N[C@@H](C)C(=O)N[C@@H](CC(C)C)C(=O)O)C(C)C)C(C)C)C(C)C` [hPTH-(1-37)], the “biological activity in the function test” value [1] was “has the correct biological activity”, the “activity on intracellular cAMP level compared with other, non-endogenous PTH peptides” value [2] was “significant differences exist in the activity” and the “α-helix proportion of the secondary structure” value [3] was 40-45%. For the same compound, the relaxation after pre-contraction [4] was “distinct relaxation” and the relaxation after pre-contraction [5] was “distinct relaxation”.
